According to the supplement of paper PMC6078165:
The reference is the same well before dosing, and untreated signal decays as well.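 Labels refer to human fibroblasts, largely primary: uterine (C12385, HUF), lung (H6013), bone (Hs27A), adrenal (HADF), skin (WS1), plus mammary HMF and breast cancer-associated Hs343T. Cancer lines are basal-like or mesenchymal-like triple-negative breast cancer. The paper counts as hits responses shifting over 3x the replicate standard deviation. The tissue of the other fibroblasts is not given here.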

Tested on: MDAMB231
Assay: relative JC-1 red fluorescence (viability) vs pre-drug, coculture with fibroblast (fraction); higher = more viable cancer cells
Description: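 JC-1 labelled TNBC cells cocultured 1:1 (1,500 cells each) with CellTrace Violet stained primary or stromal fibroblasts in 384-well plates in FluoroBrite medium, treated with one of 42 anticancer drugs at 0.1, 1, 10 or 100 uM. JC-1 red fluorescence (mitochondrial integrity in cancer cells only) was read by plate reader every 8 h for 72 h. Values are normalised to each well's pre-drug value. The stock of one drug was tenfold lower, so its dose labels may be too high.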

CN(Cc1cnc2nc(N)nc(N)c2n1)c1ccc(C(=O)N[C@@H](CCC(=O)O)C(=O)O)cc1 [Methotrexate]
relative JC-1 red fluorescence
Conditions | 8 h | 16 h | 24 h | 32 h | 40 h | 48 h | 56 h | 64 h | 72 h
0.1 µM, coculture fibroblast: C12385 | 0.7683 | 0.7 | 0.655 | 0.586 | 0.52 | 0.493 | 0.454 | 0.46 | 0.446
0.1 µM, coculture fibroblast: H6013 | 0.904 | 0.802 | 0.766 | 0.737 | 0.704 | 0.698 | 0.678 | 0.661 | 0.624
0.1 µM, coculture fibroblast: H6019 | 0.749 | 0.6585 | 0.635 | 0.59225 | 0.5463 | 0.5481 | 0.508 | 0.496 | 0.472
0.1 µM, coculture fibroblast: H6076 | 0.844 | 0.776 | 0.729 | 0.705 | 0.666 | 0.639 | 0.613 | 0.597 | 0.584
0.1 µM, coculture fibroblast: H6231 | 0.916 | 0.815 | 0.7172 | 0.6554 | 0.5914 | 0.559 | 0.515 | 0.497 | 0.47
0.1 µM, coculture fibroblast: HADF | 0.909 | 0.838 | 0.801 | 0.771 | 0.739 | 0.707 | 0.688 | 0.675 | 0.629
0.1 µM, coculture fibroblast: HCFa | 0.8763 | 0.806 | 0.759 | 0.722 | 0.6852 | 0.651 | 0.6128 | 0.582 | 0.54
0.1 µM, coculture fibroblast: HCPF | 0.88 | 0.744 | 0.665 | 0.6209 | 0.55537 | 0.5066 | 0.4689 | 0.433 | 0.416
0.1 µM, coculture fibroblast: HHSteC | 0.913 | 0.8604 | 0.805 | 0.747 | 0.698 | 0.667 | 0.623 | 0.604 | 0.558
0.1 µM, coculture fibroblast: HMF | 0.855 | 0.757 | 0.684 | 0.64 | 0.591 | 0.555 | 0.513 | 0.496 | 0.476
0.1 µM, coculture fibroblast: HPFa | 0.9486 | 0.874 | 0.805 | 0.747 | 0.713 | 0.674 | 0.616 | 0.59 | 0.546
0.1 µM, coculture fibroblast: HUF | 0.8159 | 0.684 | 0.687 | 0.571 | 0.504 | 0.48 | 0.435 | 0.435 | 0.414
0.1 µM, coculture fibroblast: Hs5 | 0.796 | 0.72 | 0.6683 | 0.623 | 0.596 | 0.537 | 0.508 | 0.488 | 0.462
0.1 µM, coculture fibroblast: Hs27A | 0.898 | 0.838 | 0.806 | 0.778 | 0.723 | 0.661 | 0.667 | 0.652 | 0.606
0.1 µM, coculture fibroblast: Hs343T | 0.819 | 0.7019 | 0.639 | 0.601 | 0.556 | 0.507 | 0.462 | 0.448 | 0.432
0.1 µM, coculture fibroblast: WS1 | 0.768 | 0.6476 | 0.621 | 0.541 | 0.496 | 0.472 | 0.434 | 0.438 | 0.426
1 µM, coculture fibroblast: C12385 | 0.771 | 0.6623 | 0.694 | 0.6 | 0.541 | 0.527 | 0.489 | 0.5 | 0.487
1 µM, coculture fibroblast: H6013 | 0.911 | 0.829 | 0.78 | 0.768 | 0.737 | 0.724 | 0.715 | 0.693 | 0.66
1 µM, coculture fibroblast: H6019 | 0.734 | 0.671 | 0.662 | 0.606 | 0.576 | 0.56 | 0.517 | 0.513 | 0.48
1 µM, coculture fibroblast: H6076 | 0.848 | 0.751 | 0.71 | 0.687 | 0.652 | 0.621 | 0.6 | 0.589 | 0.587
1 µM, coculture fibroblast: H6231 | 0.9112 | 0.83 | 0.755 | 0.704 | 0.6485 | 0.612 | 0.5806 | 0.5586 | 0.531
1 µM, coculture fibroblast: HADF | 0.892 | 0.793 | 0.743 | 0.704 | 0.663 | 0.632 | 0.608 | 0.598 | 0.552
1 µM, coculture fibroblast: HCFa | 0.8994 | 0.807 | 0.7436 | 0.682 | 0.637 | 0.582 | 0.547 | 0.516 | 0.4638
1 µM, coculture fibroblast: HCPF | 0.877 | 0.76 | 0.713 | 0.681 | 0.629 | 0.593 | 0.569 | 0.546 | 0.528
1 µM, coculture fibroblast: HHSteC | 0.927 | 0.846 | 0.806 | 0.745 | 0.693 | 0.664 | 0.614 | 0.593 | 0.548
1 µM, coculture fibroblast: HMF | 0.844 | 0.745 | 0.696 | 0.663 | 0.616 | 0.575 | 0.555 | 0.531 | 0.516
1 µM, coculture fibroblast: HPFa | 0.943 | 0.8873 | 0.839 | 0.781 | 0.749 | 0.716 | 0.66 | 0.633 | 0.589
1 µM, coculture fibroblast: HUF | 0.879 | 0.7443 | 0.757 | 0.6328 | 0.5561 | 0.5326 | 0.48 | 0.467 | 0.449
1 µM, coculture fibroblast: Hs5 | 0.886 | 0.775 | 0.729 | 0.671 | 0.63 | 0.574 | 0.55 | 0.531 | 0.516
1 µM, coculture fibroblast: Hs27A | 0.8979 | 0.847 | 0.813 | 0.781 | 0.735 | 0.6845 | 0.6822 | 0.6712 | 0.624
1 µM, coculture fibroblast: Hs343T | 0.921 | 0.806 | 0.741 | 0.673 | 0.598 | 0.538 | 0.488 | 0.468 | 0.436
1 µM, coculture fibroblast: WS1 | 0.754 | 0.643 | 0.6365 | 0.553 | 0.508 | 0.489 | 0.457 | 0.46 | 0.4483
